# Experimental data as given in paper PMC8836657.
# By UniProt entry, the sequences of proteins in these tests, tags left out.
# UniProt P17096: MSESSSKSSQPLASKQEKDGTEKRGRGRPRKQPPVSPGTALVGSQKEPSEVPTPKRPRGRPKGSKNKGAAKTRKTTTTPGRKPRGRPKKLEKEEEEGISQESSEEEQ
# UniProt Q93008: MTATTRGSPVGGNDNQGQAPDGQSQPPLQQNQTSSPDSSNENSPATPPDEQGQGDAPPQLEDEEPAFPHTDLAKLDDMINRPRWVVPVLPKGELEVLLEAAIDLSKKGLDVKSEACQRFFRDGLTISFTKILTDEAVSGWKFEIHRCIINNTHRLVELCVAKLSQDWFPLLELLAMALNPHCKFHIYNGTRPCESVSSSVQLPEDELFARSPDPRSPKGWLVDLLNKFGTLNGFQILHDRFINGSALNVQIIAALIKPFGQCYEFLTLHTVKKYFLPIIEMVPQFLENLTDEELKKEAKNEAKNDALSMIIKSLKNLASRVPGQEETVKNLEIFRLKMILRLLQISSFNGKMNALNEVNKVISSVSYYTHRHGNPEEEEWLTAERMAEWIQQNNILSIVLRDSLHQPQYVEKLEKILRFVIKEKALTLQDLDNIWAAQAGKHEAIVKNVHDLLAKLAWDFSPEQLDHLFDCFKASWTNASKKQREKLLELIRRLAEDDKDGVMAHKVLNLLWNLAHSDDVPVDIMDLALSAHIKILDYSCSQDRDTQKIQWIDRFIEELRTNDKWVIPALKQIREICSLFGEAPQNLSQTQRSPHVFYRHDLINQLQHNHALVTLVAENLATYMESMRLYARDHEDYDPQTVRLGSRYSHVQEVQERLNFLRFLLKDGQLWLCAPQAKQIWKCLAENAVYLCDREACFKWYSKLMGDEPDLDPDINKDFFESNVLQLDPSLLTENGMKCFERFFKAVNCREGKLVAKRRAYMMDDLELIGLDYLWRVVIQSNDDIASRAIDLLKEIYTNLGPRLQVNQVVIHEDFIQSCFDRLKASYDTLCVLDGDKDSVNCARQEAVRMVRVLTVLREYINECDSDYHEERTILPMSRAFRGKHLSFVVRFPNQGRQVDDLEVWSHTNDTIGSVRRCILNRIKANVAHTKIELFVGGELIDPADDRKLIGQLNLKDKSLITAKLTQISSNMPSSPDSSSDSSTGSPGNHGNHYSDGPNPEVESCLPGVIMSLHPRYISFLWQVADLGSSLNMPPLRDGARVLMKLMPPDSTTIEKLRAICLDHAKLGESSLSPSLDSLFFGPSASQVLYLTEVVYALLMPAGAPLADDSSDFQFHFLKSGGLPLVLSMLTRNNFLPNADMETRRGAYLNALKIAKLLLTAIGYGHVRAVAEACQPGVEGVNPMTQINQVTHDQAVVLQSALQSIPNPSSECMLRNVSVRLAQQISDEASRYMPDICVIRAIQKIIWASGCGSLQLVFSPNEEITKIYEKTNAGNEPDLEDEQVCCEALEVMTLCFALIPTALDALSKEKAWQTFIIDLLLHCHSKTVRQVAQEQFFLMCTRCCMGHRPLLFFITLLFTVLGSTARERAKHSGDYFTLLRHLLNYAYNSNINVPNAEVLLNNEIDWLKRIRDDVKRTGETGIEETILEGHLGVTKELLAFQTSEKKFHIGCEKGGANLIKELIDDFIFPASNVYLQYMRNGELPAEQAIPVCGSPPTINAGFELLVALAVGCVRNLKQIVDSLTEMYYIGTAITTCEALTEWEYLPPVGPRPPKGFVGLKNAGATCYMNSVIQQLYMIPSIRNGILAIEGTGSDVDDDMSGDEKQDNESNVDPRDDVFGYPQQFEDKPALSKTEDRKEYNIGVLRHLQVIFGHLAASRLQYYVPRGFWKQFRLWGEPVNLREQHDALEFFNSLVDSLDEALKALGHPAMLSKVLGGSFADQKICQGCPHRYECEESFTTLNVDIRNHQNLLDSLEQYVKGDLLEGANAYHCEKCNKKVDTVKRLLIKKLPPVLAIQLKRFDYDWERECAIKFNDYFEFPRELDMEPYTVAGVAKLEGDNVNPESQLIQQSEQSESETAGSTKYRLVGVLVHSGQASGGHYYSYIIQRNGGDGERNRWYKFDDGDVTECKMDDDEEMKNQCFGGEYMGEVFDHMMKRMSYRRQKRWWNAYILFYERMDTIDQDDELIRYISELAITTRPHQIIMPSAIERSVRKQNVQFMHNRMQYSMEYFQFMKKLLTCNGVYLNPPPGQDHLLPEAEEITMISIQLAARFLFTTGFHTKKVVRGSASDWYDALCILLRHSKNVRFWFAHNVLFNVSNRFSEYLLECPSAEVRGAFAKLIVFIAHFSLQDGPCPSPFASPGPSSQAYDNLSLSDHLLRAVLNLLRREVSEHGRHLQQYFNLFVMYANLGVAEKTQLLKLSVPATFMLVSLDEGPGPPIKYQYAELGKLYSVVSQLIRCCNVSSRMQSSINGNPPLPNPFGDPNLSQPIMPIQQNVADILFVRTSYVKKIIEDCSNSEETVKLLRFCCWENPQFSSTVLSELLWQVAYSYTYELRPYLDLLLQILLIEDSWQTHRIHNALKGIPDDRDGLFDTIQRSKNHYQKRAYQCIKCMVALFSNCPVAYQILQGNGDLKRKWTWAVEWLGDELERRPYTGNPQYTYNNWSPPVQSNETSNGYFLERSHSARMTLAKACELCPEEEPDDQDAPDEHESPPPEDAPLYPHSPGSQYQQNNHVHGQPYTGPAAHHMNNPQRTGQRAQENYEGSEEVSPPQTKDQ
# UniProt Q93009: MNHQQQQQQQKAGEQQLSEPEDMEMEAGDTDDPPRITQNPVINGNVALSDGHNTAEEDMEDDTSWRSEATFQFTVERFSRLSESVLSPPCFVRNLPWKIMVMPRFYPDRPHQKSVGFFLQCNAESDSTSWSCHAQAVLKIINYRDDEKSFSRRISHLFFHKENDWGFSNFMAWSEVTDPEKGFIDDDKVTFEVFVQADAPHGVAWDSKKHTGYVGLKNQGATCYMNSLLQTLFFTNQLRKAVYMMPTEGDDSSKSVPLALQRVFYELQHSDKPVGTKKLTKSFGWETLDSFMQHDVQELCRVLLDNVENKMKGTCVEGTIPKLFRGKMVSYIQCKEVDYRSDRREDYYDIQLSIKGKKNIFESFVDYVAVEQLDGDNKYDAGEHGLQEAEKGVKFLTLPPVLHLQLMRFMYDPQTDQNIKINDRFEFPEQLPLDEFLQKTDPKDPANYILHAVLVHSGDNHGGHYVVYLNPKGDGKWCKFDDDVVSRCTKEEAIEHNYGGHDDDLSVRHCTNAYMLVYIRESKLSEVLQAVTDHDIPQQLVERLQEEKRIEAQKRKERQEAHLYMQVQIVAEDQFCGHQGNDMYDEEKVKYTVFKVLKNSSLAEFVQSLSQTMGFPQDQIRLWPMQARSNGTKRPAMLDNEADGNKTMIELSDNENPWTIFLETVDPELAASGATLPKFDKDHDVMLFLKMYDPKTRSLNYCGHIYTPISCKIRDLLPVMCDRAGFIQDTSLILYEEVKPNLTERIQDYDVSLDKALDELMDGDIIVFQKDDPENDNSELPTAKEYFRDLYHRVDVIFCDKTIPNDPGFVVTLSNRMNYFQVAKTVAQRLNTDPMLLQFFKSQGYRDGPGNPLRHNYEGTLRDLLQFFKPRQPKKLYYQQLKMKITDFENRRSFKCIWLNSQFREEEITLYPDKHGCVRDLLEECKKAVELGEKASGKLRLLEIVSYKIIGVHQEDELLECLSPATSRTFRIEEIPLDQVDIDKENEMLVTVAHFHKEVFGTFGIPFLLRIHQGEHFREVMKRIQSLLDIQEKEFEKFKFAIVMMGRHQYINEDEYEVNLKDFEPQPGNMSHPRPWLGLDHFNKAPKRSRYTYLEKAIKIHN
# Target: Flag-HMGA1 (high mobility group A1) (UniProt P17096)
# Assay: affinity purification with mass spectrometry; Flag-HMGA1 in HEK-293T cells, combined with mass spectrometry; called an earlier experiment of the laboratory
row,binding,Substance
1,binds,Ubiquitin-specific peptidase 9 (from UniProt Q93008 1-2554) (enzyme)
2,binds,"ubiquitin-specific peptidase 7, endogenous (from UniProt Q93009 1-1102) (enzyme)"

# These are yes or no findings as the source states them, for the method shown. In cells and extracts the contact can be indirect. Here binding means that the protein was enriched with, or labelled near, the bait; the list need not be complete.
